Measurements reported in US20180105585A1.
No constants are given. Whether binding was seen depends on the method and setting. Some binding calls cover weakened binding; strength is not graded here.

Amino acid sequences for entries named in this document (tags omitted). Residues count along the entry.
UniProt P05067, residues 672-713: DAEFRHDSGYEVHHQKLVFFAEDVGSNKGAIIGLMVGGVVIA

Assays:
[1] = target: Amyloid beta plaques in Tg2576 mouse brain sections (human (transgene in mouse)) (UniProt P05067); assay: in vitro immunohistochemistry, diffuse plaques and CAA plaques
[2] = target: Amyloid beta plaques in human Alzheimer's Disease brain sections (human) (UniProt P05067); assay: as above
[3] = target: Amyloid beta plaques in Tg2576 mouse brain sections (human (transgene in mouse)) (UniProt P05067); assay: immunohistochemistry, sections stained in vitro with the antibody in excess

binding [1]: binds | binding [2]: binds | binding [3]: binds
B1: Abet0380-GL IgG1-TM (antibody, V domains shown)
VH: EVQLLESGGGLVQPGGSLRLSCAASMGNFNYQTMWWVRQAPGKGLEWVSVIGKTNENIAYADSVKGRFTISRDNSKNTLYLQMNSLRAEDTAVYYCAREWMDHSRPYYYYGMDVWGQGTLVTVSS
VL: SYELTQPPSVSVSPGQTASITCSGHNLEDKFASWYQQKPGQSPVLVIYRDDKRPSGIPERFSASNSGHTATLTISGTQAMDEADYYCSSQDTVTRVFGGGTKLTVL
